Consider 1 substance from patent publication US20250059232A1 (ENSOL BIOSCIENCES INC., priority 2021, published 2025).

A short description of the data set: peptide made by a vendor (Fmoc solid-phase peptide synthesis; H-Asp(OtBu)-2-ClTrt resin (0.63 to 0.67 mmol/g); Wang resin (0.55 mmol/g) for Comparative Example 1; HBTU (Comparative Example 1)). The following applies: whole synthesis.

As for Ac-QLHLD-OH, for the setting “HPLC”, the “crude HPLC purity” value is reported as 91.3% to 97.5% and the “final HPLC purity” value is given as 99.6%. This substance had a crude yield (deprotection peptide yield) of 98.4%.
